Results are given in words; binding and its absence hold for the method and conditions named. Some results given as binding are weak or reduced against the parent protein; the word gives no strength. Where a sequence is shown, tags or fusion partners need not be part of it. Blank lines part the entries; values can stand above or below the binder they belong to.
Legend:
[1] = biological target: cynomolgus monkey BCMA protein (cynomolgus monkey); assay: SPR (Biacore T200)
[2] = biological target: cynomolgus monkey BCMA protein (cynomolgus monkey); assay: cross-reactivity with cynomolgus monkey BCMA protein, told again in the epitope discussion

binding [1]: binds
binding [2]: binds
B1: 1A11-Fc (antibody, human IgG1, V domains shown)
VH: QVQLVESGGGSVQAGGSLRLSCAASGVTFNSACMGWFRQAPGKEREGVARIETGYGGTVYADSVKGRFTISRDNAKNTVYLQMNSLKPEDTAMYYCAAKRSWCTPTWWHELDYNYWGQGTQVTVSS

binding [1]: binds
binding [2]: binds
B2: 1A10-Fc (antibody, human IgG1, V domains shown)
VH: QVQLVESGGGSVQAGGSLRLSCAASGYSSNVACMAWYRQAPGKEREWVATIVADFGTTNYAASVKGRFTISQDNAKNTVYLQMNSLKPEDSAMYYCAATQRGGIDWCDEINYWGQGTLVTVSS

From patent US20240182592A1
